In PubChem BioAssay AID2417 (National Center for Advancing Translational Sciences (NCATS), 2010):
Out of some 140,000 compounds screened, about 4,300 (3.1%) were called active. Inconclusive results, whose numbers are uncertain, are shown with a selection of clear calls.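 Rule for the calls: active = readout at or below -70, meaning at least 70% loss of cells showing the perinucleolar compartment, a nuclear body marking cancer cells; inconclusive = readout between -30 and a set limit; inactive = the rest.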

Assay: High Content Assay for Compounds that inhibit the Assembly of the Perinucleolar Compartment;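 note: plate controls were DMSO wells for no effect and camptothecin positive control wells for full effect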
Conditions: PC3M PTB-GFP, PNC prevalence imaging, 16 h; at 10 µM; stronger effect = lower value
In short: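 Compounds are pinned in duplicate onto adhered PC3M cells stably expressing GFP-tagged PTB and incubated 16 h at 37 C. Cells are then fixed, nuclei stained with Hoechst, and PNC-positive cells counted.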

Structure (SMILES)	activity change (PNC), negative = inhibition
N#C/C(C(=O)N1CCCC1)=C1/N=C(N)c2ccccc21	inconclusive: -47.1%
Cc1cccc(C)c1NC(=O)COc1cccc(/C=N/NC(=O)C(=O)NCc2ccccc2)c1	inconclusive: -45.6%
CCn1cc(C(=O)NCCN(C)CCc2ccccc2)c(=O)c2cc(S(=O)(=O)N(C)C)ccc21	inconclusive: -60.5%
CCOC(=O)Nc1c(O)ccc2oc(C)c(-c3ccccc3)c12	inconclusive: -34.6%
CSc1nc(-c2ccco2)nn1S(C)(=O)=O	inconclusive: -39.1%
CC1CCCCN1S(=O)(=O)c1ccc(S(=O)(=O)N(CC(=O)Nc2ccccc2)Cc2cccs2)cc1 (stereo not drawn)	inactive: -17.2%
Fc1ccccc1NC(=S)NNc1ncc(C(F)(F)F)cc1Cl	inactive: -16.3%
CCCCn1c(CCNC(=O)CCC)nc2ccccc21	inconclusive: -61.7%
CNC(=O)N(O)C1N(NC(=O)Nc2cccc3ccccc23)C(=S)SC1(C)C (stereo not drawn)	inconclusive: -59.2%
Cc1cc(C(=O)N=Nc2c(O)n(C(C)C)c3ccccc23)n[nH]1	inconclusive: -30.5%
CC1Cn2c(CCc3ccccc3)nnc2S1 (stereo not drawn)	inactive: 29.4%
CC(NC(=O)CSc1nnc(COc2ccccc2)o1)c1ccccc1 (stereo not drawn)	inconclusive: -50.6%
CC(C)OC(=O)CN1C(=O)C(=O)c2ccccc21	inconclusive: -40.5%
Cc1ccc(OCCNC(=O)/C=C/c2ccccc2)cc1	inconclusive: -74.4%
Cn1c(SCC(=O)N2CCOCC2)nc2cccnc21	inactive: -25%
O=C1CCCCCN1Cc1ccccc1	inactive: -13.5%
O=C(NNC(=S)NC1CCCCC1)c1cccc(S(=O)(=O)Nc2ccccc2Cl)c1	inconclusive: -58.8%
C=CCOC(=O)C1=C(C)OC(N)=C(C#N)C1c1ccoc1 (stereo not drawn)	inconclusive: -52.9%
CCOC(=O)c1[nH]n(-c2ccc(Cl)cc2)c(=O)c1C	active: -114%
O=C(CSc1nnc(-c2cnccn2)n1Cc1ccco1)c1ccc2ccccc2c1	inconclusive: -60.6%

Structure (SMILES)	activity change (PNC), negative = inhibition
O=C(Nc1cccc(F)c1)c1ccc(-c2ccccc2C(F)(F)F)o1	inactive: -9.95%
COc1ccc(NS(=O)(=O)c2ccc3oc(Nc4ccc5c(c4)OCCO5)nc3c2)cc1	inactive: 22.8%
CCCc1cc(C(=O)Nc2cc(Br)ccc2O)no1	inconclusive: -61%
COC(=O)c1ccc(N2C(=O)CC(SCCN)C2=O)cc1 (stereo not drawn)	inactive: 1.25%
Cc1ccc2nc(NC(=O)CCn3c(=O)sc4ccccc43)sc2c1	inactive: 16.1%
O=C(Nc1ccc(CN2CCCCC2)cc1)c1ccc2c(c1)OCO2	inactive: 45.9%
Cn1c(=O)c2c(nc(CN3CCc4ccccc4C3)n2Cc2ccccc2F)n(C)c1=O	inconclusive: -55.2%
CCOC(=S)SCC(=O)N1CCc2ccccc2C1C1C(=O)CC(C)(C)CC1=O (stereo not drawn)	inconclusive: -42%
COC(=O)c1cc(C(=O)OC)cc(-n2c(C)cc(C(=O)CC#N)c2C)c1	inconclusive: -52.5%
CCCOC(=O)C1=C(C)NC2=C(C(=O)C(C(=O)OC)C(C)C2)C1c1ccc(N(C)C)cc1 (stereo not drawn)	inconclusive: -57.1%
COc1ccccc1-c1nnc(SCC(=O)Nc2cc(C)on2)o1	inactive: -4.25%
CC(c1ccccc1)n1c(SCC(=O)N2CC(=O)Nc3ccccc32)nc2ccccc2c1=O (stereo not drawn)	inconclusive: -77.3%
Cc1cc(=O)n(-c2ccc(O)cc2)[nH]1	inactive: 11.2%
CC1=NN(c2ccc(Br)cc2)C(=O)/C1=C/c1cccs1	inconclusive: -67.9%
CC1=CC(C)(C)N(S(=O)(=O)c2ccc(C)cc2)c2cc(C)ccc21	active: -95.2%
NC(=O)CSc1nnc(-c2cccc(S(=O)(=O)N3CCOCC3)c2)n1C1CCCCCC1	inconclusive: -39.6%
CC(C)(C)C(=O)Nc1cc2nn(-c3ccccc3)nc2cc1Cl	inactive: 39.5%
Cc1cc(-c2ccco2)n(CC(=O)NCCN(C)C)n1	inconclusive: -38.9%
CC1CC(=S)Nc2ccccc2S1 (stereo not drawn)	inconclusive: -46.9%
S=c1[nH]nc(-c2ccc(Cl)cc2Cl)n1Cc1ccccc1	inconclusive: -35.7%

Exported as comma-separated lines: entries from further up
Structure (SMILES),"activity change (PNC), negative = inhibition"
O=C(NNC(=S)NC1CCCCC1)c1cccc(S(=O)(=O)Nc2ccccc2Cl)c1,inconclusive: -58.8%
Cc1cc(-c2ccco2)n(CC(=O)NCCN(C)C)n1,inconclusive: -38.9%

Next part

Structure (SMILES)	activity change (PNC), negative = inhibition
O=C(CSC1=NCCN1)NC12CC3CC(CC(C3)C1)C2	inconclusive: -39.7%
CCOC(=O)c1c(NC(=O)CSc2nc3ccccc3c(=O)n2-c2ccccc2)sc(C(C)=O)c1C	inconclusive: -33.4%
CCOC(=O)c1c(NC(=S)Nc2ccccc2)sc(C)c1C	inconclusive: -46%
CC(=O)Nc1ccc(S(=O)(=O)NCCc2csc(C)n2)cc1	inconclusive: -47%
Cc1cc(C)cc(-n2ccnc2SCC(=O)Nc2ccc3c(c2)OCCO3)c1	active: -85.4%
CCOc1ccc(N2CC(C(=O)NCc3ccc(F)cc3)CC2=O)cc1 (stereo not drawn)	inconclusive: -79.5%
CCCCNC(=S)NCc1ccc2[nH]c(C)cc2c1	active: -115%
Cc1ccc([N+](=O)[O-])cc1NC(=O)C(Sc1ccccc1)c1ccccc1 (stereo not drawn)	inactive: -2.16%
CCN(CC)CCNC(=O)C1CCC(=O)N(c2ccc(OC)cc2)C1c1ccc(F)cc1 (stereo not drawn)	inactive: 4.49%
COc1ccc(NC(=O)c2nc3nc(C)cc(C(F)F)n3n2)cc1OC	inconclusive: -79.5%
CCCCn1nc2cc(C(=O)N[C@H](C)C3CCCCC3)ccc2c1OCC	inactive: -21%
O=C(Nc1ccc(-c2nc3ccccc3o2)cc1)c1ccc2c(c1)OCO2	inconclusive: -48.1%
Cc1ccc(S(=O)(=O)Nc2ccnc3ccccc23)cc1	inconclusive: -55%
C/C(CCN1CCCCc2nc(C)c(C)cc21)=N\O[C@@H](C)CN1CCCCc2nc(C)c(C)cc21	inconclusive: -77.6%
COc1cccc(/C=N/Nc2cc(-n3nc(C)cc3-c3ccccc3)ncn2)c1O	active: -100%
O=C(Nc1cccc(C(=O)N2CCOCC2)c1)c1cccnc1	inconclusive: -36.6%
CCC(C)N(C(=O)COC(=O)CCc1c[nH]c2ccccc12)C1CCS(=O)(=O)C1 (stereo not drawn)	inconclusive: -68.2%
CCN(CC)S(=O)(=O)c1ccc(C)c(NC(=O)Cn2c(=O)cnc3ccccc32)c1	inactive: 29.1%
